Reference: patent EP2660245A1, “PHYSIOLOGICALLY ACTIVE BIS-DIALKYLAMIDES OF PHOSPHORYL-SUBSTITUTED 1,4-DICARBOXYLIC ACIDS AND METHOD FOR PRODUCING SAME” (Federalnoe Gosudarstvennoe Bydzhetnoe Uchrezhdenie Nauki …, priority 2010, dated 2012)
Some results were stated once for a whole list of compounds, not compound by compound.

These compounds were tested on rat cortical synaptosomes (assay: glutamate-induced 45Ca2+ uptake into rat cortical synaptosomes (P2-fraction)). Conditions: compound at 100 µM; glutamate-stimulated; synaptosomes of newborn Wistar rats; 5 minutes at 37°C; control = 100%.
Type: cell-based
Excerpt: Neuroprotective action of the synthesized compounds was studied in P2-fraction of the rat brain cortex synaptosomes as an in vitro convenient model for evaluation of the ability of various compounds to influence calcium uptake into the nerve endings. In the present invention, the applicant used the method of detecting the uptake of ^45Ca^2+ into rat cortical synaptosomes when stimulated with glutamic acid.
Synaptosomes were obtained from the cerebral cortex of newborn Wistar rats (9-10 days) according to Hayosh's standard procedure [Hajos F.// Brain Res., 1975, Vol.93, No 3, pp. 485-489]. The brain was homogenized (glass-teflon) in 10 volumes of 0.32 M chilled sucrose (900 rpm). The homogenate was centrifuged for 10 minutes at 1500 g. The resulting supernatant was centrifuged for 20 minutes at 10000 g. To accumulate the radioactive label, the P2-synaptosomal fraction was suspended in incubation buffer A (132 mM NaCl, 5 mM KCl, 5 mM HEPES, 10 mM glucose, pH 7.4 (protein concentration of 1.5-2 mg/ml)). The final concentration of Ca^2+ was 1.25 mM (1.4 µCi/ml). […] glutamate was used to stimulate the uptake of ^45Ca^2+ in synaptosomes. […] The samples were analyzed by liquid scintillation beta analyzer (Russia). […] The amount of ^45Ca^2+ uptaced into synaptosomes was determined by the difference in the content of the label in the glutamate-induced uptake into synaptosomes and uptake into synaptosomes without agonist, and expressed as percentages of the control (control = 100%).
Specific uptake of ^45Ca^2+ was calculated according to the following formula: K(43/21) = [(Ca4-Ca3)/(Ca2-Ca1)]⋅100%, [formula] wherein Ca1 is uptake of ^45Ca^2+ in the control (without glutamate and a test compound), Ca2 is uptake of ^45Ca^2+ in the presence of glutamate, Ca3 is uptake of ^45Ca^2+ in the presence of a test compound (without glutamate), Ca4 is uptake of ^45Ca^2+ in the presence of glutamate and a test compound. […]

SMILES	^45Ca^2+ uptake (% vs. control)
CCCCN(CCCC)C(=O)CC(C(=O)N(CCCC)CCCC)P(=O)(c1ccccc1)c1ccccc1 (stereo not drawn) [Compound 1, N^1,N^1,N^4,N^4-tetrabutyldiamide of 2-(diphenylphosphinoyl)succinic acid]	inhibit completely or significantly the calcium uptake
CCCCN(CCCC)C(=O)CC(C(=O)N(CCCC)CCCC)P(=O)(c1ccccc1C)c1ccccc1C (stereo not drawn) [Compound 2]	inhibit completely or significantly the calcium uptake
CCCCN(CCCC)C(=O)CC(CP(=O)(c1ccc(OC)cc1)c1ccc(OC)cc1)C(=O)N(CCCC)CCCC (stereo not drawn) [Compound 8, N^1,N^1,N^4,N^4-tetrabutyldiamide of 2-[bis(4-methoxyphenyl)-phosphinoylmethyl]succinic acid]	inhibit completely or significantly the calcium uptake
